B1: MHR0009/CD3 (bispecific antibody, human IgG1, kappa, N297A)
heavy 1: QSLEESGGRLVTPGTPLTLTCKASGFSLSSYAMIWVRQAPGKGLESIGMVYIHSGGTYYASWAKGRFTISKTSTTVDLKITSPTTEDTATYFCARYNGGGSGTDLWGPGTLVTVSSASTKGPSVFPLAPSSRSTSESTAALGCLVKDYFPEPVTVSWNSGALTSGVHTFPAVLQSSGLYSLSSVVTVPSSSLGTKTYTCNVDHKPSNTKVDKRVEPKSCDKTHTCPPCPAPELRRGPKVFLFPPKPKDTLMISRTPEVTCVVVDVSQEDPEVQFNWYVDGVEVHNAKTKPREEQFASTYRVVSVLTVLHQDWLNGKEYKCKVSNKGLPSSIEKTISKAKGQPREPQVYTLPPSREEMTKNQVSLTCLVKGFYPSDIAVEWESNGQPENNYKTTPPYLDSDGSFFLYSKLTVDKSRWQEGNVFSCSVMHEALHNHYTQESLSLSP
light 1: DIVMTQTPSSVSEPVGGTVTIKCQASQSIYSYLSWYQQKPGQRPKLLIYYASTLASGVPSRFKGSGSGTQFTLTISDLECADAATYYCQNNYGSDSNIYGIAFGGGTKVEIKRTVAAPSVFIFPPSDEQLKSGTASVVCLLNNFYPREAKVQWKVDNALQSGNSQESVTEQDSKDCTYSLSSTLTLSKADYEKHKVYACEVTHQGLSSPVTKSFNRGEC
heavy 2: QVQLVESGGGVVQPGGSLRLSCAASGFTFSNAWMHWVRQAPGKGLEWVAQIKDKSQNYATYVAESVKGRFTISRADSKNSIYLQMNSLKTEDTAVYYCRYVHYAAGYGVDIWGQGTTVTVSSASTKGPSVFPLAPSSRSTSESTAALGCLVKDYFPEPVTVSWNSGALTSGVHTFPAVLQSSGLYSLSSVVTVPSSSLGTKTYTCNVDHKPSNTKVDKRVEPKSCDKTHTCPPCPAPELRRGPKVFLFPPKPKDTLMISRTPEVTCVVVDVSQEDPEVQFNWYVDGVEVHNAKTKPREEQFASTYRVVSVLTVLHQDWLNGKEYKCKVSNKGLPSSIEKTISKAKGQPREPQVYTLPPSRKEMTKNQVSLTCLVKGFYPSDIAVEWESNGQPENNYKTTPPYLDSDGSFFLYSKLTVDKSRWQEGNVFSCSVMHEALHNHYTQKSLSLSP
light 2: DIVMTQSPLSLPVTPGEPASISCRSSQPLVHSNRNTYLHWYQQKPGQAPRLLIYKVSNRFSGVPDRFSGSGSGTDFTLKISRVEAEDVGVYYCGQGTQVPYTFGQGTKLEIKRTVAAPSVFIFPPSDEQLKSGTASVVCLLNNFYPREAKVQWKVDNALQSGNSQESVTEQDSKDSTYSLSSTLTLSKADYEKHKVYACEVTHQGLSSPVTKSFNRGEC
B2: MHR0016/CD3 (bispecific antibody, human IgG1, kappa, N297A)
heavy 1: QSVEESGGRLVTPGTPLTLTCTVSGFSLSSNAISWVRQAPGKGLEYIGIISSSGSTYYANWAKGRFTISKTSSTTVDLKMTSATTEDTATYFCARGVDIYGHAYATPYGMDLWGPGTLVTVSSASTKGPSVFPLAPSSRSTSESTAALGCLVKDYFPEPVTVSWNSGALTSGVHTFPAVLQSSGLYSLSSVVTVPSSSLGTKTYTCNVDHKPSNTKVDKRVEPKSCDKTHTCPPCPAPELRRGPKVFLFPPKPKDTLMISRTPEVTCVVVDVSQEDPEVQFNWYVDGVEVHNAKTKPREEQFASTYRVVSVLTVLHQDWLNGKEYKCKVSNKGLPSSIEKTISKAKGQPREPQVYTLPPSREEMTKNQVSLTCLVKGFYPSDIAVEWESNGQPENNYKTTPPYLDSDGSFFLYSKLTVDKSRWQEGNVFSCSVMHEALHNHYTQESLSLSP
light 1: EVVMTQTPASVSEPVGGTVTIKCQASQSISSYLSWYQQKPGQPPKLLIYYSSTLASGVPSRFKGSGSGTEFTLTISDLECADAATYYCQSNYGSSSSSYEDTFGGGTKVEIKRTVAAPSVFIFPPSDEQLKSGTASVVCLLNNFYPREAKVQWKVDNALQSGNSQESVTEQDSKDCTYSLSSTLTLSKADYEKHKVYACEVTHQGLSSPVTKSFNRGEC
heavy 2: B1 heavy 2
light 2: B1 light 2
B3: MHR0019/CD3 (bispecific antibody, human IgG1, kappa, N297A)
heavy 1: QSVEESGGRLVAPGTPLTLTCTVSGIDLSSDAMAWVRQAPGKGLEYIGIISSSGSTYYASWAKGRFTISKTSTTVDLKITSPTTEDTATYFCARGVDIYGHAYATPYGMDLWGPGTLVTVSSASTKGPSVFPLAPSSRSTSESTAALGCLVKDYFPEPVTVSWNSGALTSGVHTFPAVLQSSGLYSLSSVVTVPSSSLGTKTYTCNVDHKPSNTKVDKRVEPKSCDKTHTCPPCPAPELRRGPKVFLFPPKPKDTLMISRTPEVTCVVVDVSQEDPEVQFNWYVDGVEVHNAKTKPREEQFASTYRVVSVLTVLHQDWLNGKEYKCKVSNKGLPSSIEKTISKAKGQPREPQVYTLPPSREEMTKNQVSLTCLVKGFYPSDIAVEWESNGQPENNYKTTPPYLDSDGSFFLYSKLTVDKSRWQEGNVFSCSVMHEALHNHYTQESLSLSP
light 1: B2 light 1 with S51A, A81D
heavy 2: B1 heavy 2
light 2: B1 light 2
B4: MHR0060/CD3 (bispecific antibody, human IgG1, kappa, N297A)
heavy 1: B3 heavy 1 with A12T, I26F, D27S, D31Y, A34G, S60N, A102P
light 1: B2 light 1 with S12E, E13V, P14A, S34A, S51A, A81D
heavy 2: B1 heavy 2
light 2: B1 light 2
B5: MHR0010/CD3 (bispecific antibody, human IgG1, kappa, N297A)
heavy 1: QSVEESGGRLVTPGTPLTLTCTVSGFSLSRYAMSWVRQAPGKGLEWIGIIVSSSGSTYYATWATGRFTISKTSTTVDLKITSPTTEDTATYFCARIRGYDNIGYGYPWFYYFNLWGPGTLVTVSSASTKGPSVFPLAPSSRSTSESTAALGCLVKDYFPEPVTVSWNSGALTSGVHTFPAVLQSSGLYSLSSVVTVPSSSLGTKTYTCNVDHKPSNTKVDKRVEPKSCDKTHTCPPCPAPELRRGPKVFLFPPKPKDTLMISRTPEVTCVVVDVSQEDPEVQFNWYVDGVEVHNAKTKPREEQFASTYRVVSVLTVLHQDWLNGKEYKCKVSNKGLPSSIEKTISKAKGQPREPQVYTLPPSREEMTKNQVSLTCLVKGFYPSDIAVEWESNGQPENNYKTTPPYLDSDGSFFLYSKLTVDKSRWQEGNVFSCSVMHEALHNHYTQESLSLSP
light 1: DVVMTQTPASVEAAVGGTVTIKCQASQSISSYLAWYQQKPGQPPKLLIYDASDLASGVPSRFKGSGSGTQFTLTISDLECADAATYYCQSYYYSSSSSYGFAFGGGTKVEIKRTVAAPSVFIFPPSDEQLKSGTASVVCLLNNFYPREAKVQWKVDNALQSGNSQESVTEQDSKDCTYSLSSTLTLSKADYEKHKVYACEVTHQGLSSPVTKSFNRGEC
heavy 2: B1 heavy 2
light 2: B1 light 2

Where a chain is given by its changes, count along the chain named. These are yes or no findings as the source states them, for the method shown.

In the assay the target is recombinant human wild-type HER2 ECD with twin Strep tag (human) (UniProt P04626). The assay is described as follows: SPR, Biacore 8K, 37 C, antibody captured by anti-human Fc, antigen 25-400 nM. In general terms: SPR reads the build-up and loss of mass on a sensor chip optically.
As to B1, the binding result is given as “no binding (tested: 400 nM)”. With B2, the binding result was “no binding (tested: 400 nM)”. The result for B3 reads “no binding (tested: 400 nM)”; that for B4, “no binding (tested: 400 nM)”; that for B5, “no binding (tested: 400 nM)”.

The values above are taken from US20220033516A1.
